The record followed here is publication PMC11578379.

Holding throughout (experiment): EMSA
Data set [1] deals with T1, FtMADS1 (Fagopyrum tataricum) (UniProt A0A9E8G182).
T1 sequence (looked up, limits assumed): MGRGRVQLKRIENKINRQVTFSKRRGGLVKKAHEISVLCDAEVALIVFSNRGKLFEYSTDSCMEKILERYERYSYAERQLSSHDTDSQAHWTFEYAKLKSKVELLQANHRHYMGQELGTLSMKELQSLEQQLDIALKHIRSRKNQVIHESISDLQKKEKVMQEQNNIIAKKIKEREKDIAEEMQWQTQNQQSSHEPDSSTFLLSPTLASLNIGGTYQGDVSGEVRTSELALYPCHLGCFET
Conditions: LightShift Chemiluminescent EMSA Kit (Thermo), manufacturer's instructions, 5' biotinylated probes, pH and temperature not stated, recombinant protein, protein details: GST (FtMADS1-GST, pGEX-4T-1 per pull-down Methods). In general terms: Mobility shift assays separate free from complexed probe on a gel.

For data set [2], the system named is FtMADS2 (Fagopyrum tataricum). Conditions: LightShift Chemiluminescent EMSA Kit (Thermo), manufacturer's instructions; 5' biotinylated probes; pH and temperature not stated; recombinant protein; protein details: GST (FtMADS2-GST, pGEX-4T-1 per pull-down Methods); label: 5' biotin.
The subject of data set [3] is FtMADS1 + FtMADS2 + FtPAK. The following applies: ATP, FtMADS1, FtMADS2 and FtPAK co-incubated, DNA-bound component not established; LightShift Chemiluminescent EMSA Kit (Thermo), manufacturer's instructions; 5' biotinylated probes; pH and temperature not stated; recombinant protein; label: 5' biotin.

For at least one entry, the source does not settle the construct or the ends of the probe. For part of these data: Negatives hold for the conditions tested. For part of these data: Where a protein sequence is shown, tags need not be part of it. For part of these data: A weaker result is weaker than the reference pair of the same experiment. For part of these data: At least one verdict was read from the data and is not stated in words by the source.

With “AAATCCATATAAAGATTTAAATCCATATAAAGATTTAAATCCATATAAAGATTTAAATCCATATAAAGATTTAAATCCATATAAAGATTT (double strand) [5×BOX1]”, in data set [1] (label: 5' biotin), the binding result is reported as “no binding”.
“TAGTTCTAAAAAGGAAATTATAGTTCTAAAAAGGAAATTATAGTTCTAAAAAGGAAATTATAGTTCTAAAAAGGAAATTATAGTTCTAAAAAGGAAATTA (double strand) [5×BOX2]”: the binding result in data set [2] is given as “no binding”; in data set [1] (FtMADS2 present, label: 5' biotin), “no binding”; in data set [1] (label: 5' biotin), “binds”; in data set [3], “binds”.
As to “TAGTTCTAAAAATTCCCTTATAGTTCTAAAAATTCCCTTATAGTTCTAAAAATTCCCTTATAGTTCTAAAAATTCCCTTATAGTTCTAAAAATTCCCTTA (double strand) [mut 5×BOX2]”, the binding result in data set [1] is listed as “binds more weakly”.
